Compound in the test: Cc1cc(ccc1-c1ccccc1)C(=O)N1CCCN(CC1)C(=O)CCl [compound 10]
Kind of test: probe-labelled cysteine peptide fold change vs DMSO (competition) (log2 fold change); higher = less target engagement (more negative = stronger competition). Particulars: THP-1, incubation time: 4 h.

Chains of the proteins cited; added tags and fusions are not shown. Lines headed by an entry give the natural chain unless they say otherwise; changes in a name come on top.
UniProt Q6ZS17: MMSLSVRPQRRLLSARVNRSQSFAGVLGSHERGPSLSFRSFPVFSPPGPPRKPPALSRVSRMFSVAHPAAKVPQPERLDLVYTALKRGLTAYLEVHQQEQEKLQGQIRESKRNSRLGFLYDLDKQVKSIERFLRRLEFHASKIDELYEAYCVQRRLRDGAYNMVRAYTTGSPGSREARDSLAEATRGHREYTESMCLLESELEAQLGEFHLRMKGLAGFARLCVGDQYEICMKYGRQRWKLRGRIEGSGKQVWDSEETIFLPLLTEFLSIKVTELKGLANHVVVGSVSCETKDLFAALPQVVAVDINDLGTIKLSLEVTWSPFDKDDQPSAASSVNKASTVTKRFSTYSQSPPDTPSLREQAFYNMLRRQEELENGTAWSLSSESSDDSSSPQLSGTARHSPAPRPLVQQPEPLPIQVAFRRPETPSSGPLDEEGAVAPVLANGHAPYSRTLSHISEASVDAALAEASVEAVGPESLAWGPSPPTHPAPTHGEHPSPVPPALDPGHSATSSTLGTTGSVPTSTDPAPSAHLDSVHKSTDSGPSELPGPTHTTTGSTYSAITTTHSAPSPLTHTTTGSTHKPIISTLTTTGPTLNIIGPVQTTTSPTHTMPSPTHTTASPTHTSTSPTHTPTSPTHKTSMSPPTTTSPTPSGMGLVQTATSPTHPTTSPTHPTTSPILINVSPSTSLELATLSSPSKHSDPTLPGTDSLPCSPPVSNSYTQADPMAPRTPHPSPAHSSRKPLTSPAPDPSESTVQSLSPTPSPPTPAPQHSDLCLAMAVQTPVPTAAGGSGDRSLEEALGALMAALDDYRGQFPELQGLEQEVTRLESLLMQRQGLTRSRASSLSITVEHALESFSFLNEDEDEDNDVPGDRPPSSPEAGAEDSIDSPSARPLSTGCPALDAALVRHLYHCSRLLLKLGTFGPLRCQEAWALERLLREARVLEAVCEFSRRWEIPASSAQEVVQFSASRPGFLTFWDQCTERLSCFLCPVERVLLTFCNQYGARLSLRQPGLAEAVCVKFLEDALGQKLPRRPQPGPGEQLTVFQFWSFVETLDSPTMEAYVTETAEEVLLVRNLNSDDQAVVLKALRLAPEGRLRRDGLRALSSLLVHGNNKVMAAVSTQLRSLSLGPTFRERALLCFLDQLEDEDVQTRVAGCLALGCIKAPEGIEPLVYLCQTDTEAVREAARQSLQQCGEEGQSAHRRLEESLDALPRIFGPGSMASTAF
UniProt P40938, whole entry, looked up: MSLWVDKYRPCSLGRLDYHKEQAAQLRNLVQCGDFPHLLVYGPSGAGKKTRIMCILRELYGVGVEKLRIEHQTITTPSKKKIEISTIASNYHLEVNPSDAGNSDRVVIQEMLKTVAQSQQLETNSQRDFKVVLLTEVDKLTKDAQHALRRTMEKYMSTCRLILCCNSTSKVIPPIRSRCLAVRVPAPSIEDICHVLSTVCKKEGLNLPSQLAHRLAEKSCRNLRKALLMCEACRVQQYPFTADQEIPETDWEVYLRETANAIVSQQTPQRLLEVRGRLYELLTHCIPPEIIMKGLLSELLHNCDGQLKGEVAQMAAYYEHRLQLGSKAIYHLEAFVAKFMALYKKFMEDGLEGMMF
UniProt Q13129: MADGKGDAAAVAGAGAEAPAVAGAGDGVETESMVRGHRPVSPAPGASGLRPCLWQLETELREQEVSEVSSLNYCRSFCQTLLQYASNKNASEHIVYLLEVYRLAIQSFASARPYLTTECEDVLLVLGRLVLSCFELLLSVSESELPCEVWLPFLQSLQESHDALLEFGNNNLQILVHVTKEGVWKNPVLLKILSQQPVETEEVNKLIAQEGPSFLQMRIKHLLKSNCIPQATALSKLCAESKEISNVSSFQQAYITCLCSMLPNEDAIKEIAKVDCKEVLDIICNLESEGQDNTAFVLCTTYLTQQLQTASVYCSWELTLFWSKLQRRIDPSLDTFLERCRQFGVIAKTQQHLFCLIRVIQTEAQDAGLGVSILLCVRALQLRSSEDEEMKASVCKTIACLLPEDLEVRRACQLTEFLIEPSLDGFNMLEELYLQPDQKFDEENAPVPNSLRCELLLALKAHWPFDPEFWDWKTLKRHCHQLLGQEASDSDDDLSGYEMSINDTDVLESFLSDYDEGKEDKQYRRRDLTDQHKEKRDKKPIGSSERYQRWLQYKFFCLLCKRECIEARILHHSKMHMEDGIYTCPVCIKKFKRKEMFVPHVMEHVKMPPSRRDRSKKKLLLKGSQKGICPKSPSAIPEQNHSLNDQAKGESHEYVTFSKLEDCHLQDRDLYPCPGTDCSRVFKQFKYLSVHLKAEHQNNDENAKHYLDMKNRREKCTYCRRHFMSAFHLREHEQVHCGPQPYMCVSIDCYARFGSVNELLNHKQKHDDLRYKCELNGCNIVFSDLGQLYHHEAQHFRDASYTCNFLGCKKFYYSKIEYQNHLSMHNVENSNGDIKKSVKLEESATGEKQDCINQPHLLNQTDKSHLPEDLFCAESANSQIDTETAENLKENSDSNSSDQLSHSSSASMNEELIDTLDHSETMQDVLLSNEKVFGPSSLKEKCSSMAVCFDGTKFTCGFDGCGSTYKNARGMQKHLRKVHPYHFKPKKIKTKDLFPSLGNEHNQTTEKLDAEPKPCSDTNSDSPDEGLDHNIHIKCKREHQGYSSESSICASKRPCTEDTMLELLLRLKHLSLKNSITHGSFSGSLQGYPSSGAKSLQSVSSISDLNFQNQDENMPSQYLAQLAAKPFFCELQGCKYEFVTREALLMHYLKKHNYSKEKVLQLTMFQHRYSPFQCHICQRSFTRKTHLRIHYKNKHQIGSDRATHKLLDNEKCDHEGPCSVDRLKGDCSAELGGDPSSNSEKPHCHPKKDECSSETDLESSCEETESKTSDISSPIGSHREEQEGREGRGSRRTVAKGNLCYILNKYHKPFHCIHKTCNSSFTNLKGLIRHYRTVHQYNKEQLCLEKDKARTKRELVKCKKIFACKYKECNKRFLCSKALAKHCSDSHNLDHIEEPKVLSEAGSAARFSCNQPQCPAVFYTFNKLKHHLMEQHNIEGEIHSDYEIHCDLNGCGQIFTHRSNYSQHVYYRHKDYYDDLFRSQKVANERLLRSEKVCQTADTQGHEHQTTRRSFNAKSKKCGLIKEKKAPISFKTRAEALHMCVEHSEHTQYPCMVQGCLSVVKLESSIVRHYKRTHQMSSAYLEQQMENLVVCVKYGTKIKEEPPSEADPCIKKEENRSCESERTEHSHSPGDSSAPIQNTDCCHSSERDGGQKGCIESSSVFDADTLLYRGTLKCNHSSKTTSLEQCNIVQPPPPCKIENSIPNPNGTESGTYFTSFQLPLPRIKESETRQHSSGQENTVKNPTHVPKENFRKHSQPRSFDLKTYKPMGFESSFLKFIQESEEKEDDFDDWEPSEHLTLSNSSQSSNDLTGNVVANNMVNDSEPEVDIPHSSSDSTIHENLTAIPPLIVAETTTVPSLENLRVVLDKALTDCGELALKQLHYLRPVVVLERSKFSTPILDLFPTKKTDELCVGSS
UniProt Q96TC7: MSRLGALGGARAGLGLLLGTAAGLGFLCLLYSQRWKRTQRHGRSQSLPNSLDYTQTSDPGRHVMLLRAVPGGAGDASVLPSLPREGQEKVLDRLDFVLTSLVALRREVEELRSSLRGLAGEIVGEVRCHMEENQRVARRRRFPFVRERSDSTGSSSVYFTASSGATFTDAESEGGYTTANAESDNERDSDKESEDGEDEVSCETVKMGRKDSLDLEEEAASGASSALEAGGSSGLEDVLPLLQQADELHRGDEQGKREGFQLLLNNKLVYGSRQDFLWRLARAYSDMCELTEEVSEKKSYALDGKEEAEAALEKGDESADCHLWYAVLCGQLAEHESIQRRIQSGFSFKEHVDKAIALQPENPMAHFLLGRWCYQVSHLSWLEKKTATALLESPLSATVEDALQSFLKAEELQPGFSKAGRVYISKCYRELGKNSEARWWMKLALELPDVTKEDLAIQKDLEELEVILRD
UniProt O00584, whole entry, looked up: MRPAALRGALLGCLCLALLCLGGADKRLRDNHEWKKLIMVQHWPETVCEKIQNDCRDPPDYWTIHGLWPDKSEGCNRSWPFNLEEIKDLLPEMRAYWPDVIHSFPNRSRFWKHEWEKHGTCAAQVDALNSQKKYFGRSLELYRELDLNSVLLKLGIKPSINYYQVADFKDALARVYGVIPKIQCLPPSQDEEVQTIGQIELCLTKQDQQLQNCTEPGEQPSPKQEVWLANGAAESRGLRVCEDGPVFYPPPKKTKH
UniProt O14730: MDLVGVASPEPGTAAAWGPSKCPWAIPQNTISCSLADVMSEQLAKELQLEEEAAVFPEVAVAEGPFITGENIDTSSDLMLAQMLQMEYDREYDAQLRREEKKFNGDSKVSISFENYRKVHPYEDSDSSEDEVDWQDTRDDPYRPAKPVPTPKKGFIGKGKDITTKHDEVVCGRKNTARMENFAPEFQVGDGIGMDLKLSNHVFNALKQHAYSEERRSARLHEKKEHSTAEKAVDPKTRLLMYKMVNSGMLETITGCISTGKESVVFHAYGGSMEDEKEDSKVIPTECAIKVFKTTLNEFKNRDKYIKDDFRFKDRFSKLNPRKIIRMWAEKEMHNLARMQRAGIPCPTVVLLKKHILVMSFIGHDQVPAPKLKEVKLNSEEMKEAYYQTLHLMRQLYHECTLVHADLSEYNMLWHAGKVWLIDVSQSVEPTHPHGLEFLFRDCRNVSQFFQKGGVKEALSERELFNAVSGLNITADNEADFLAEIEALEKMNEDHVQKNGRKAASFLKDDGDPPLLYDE
UniProt Q6R327, whole entry, looked up: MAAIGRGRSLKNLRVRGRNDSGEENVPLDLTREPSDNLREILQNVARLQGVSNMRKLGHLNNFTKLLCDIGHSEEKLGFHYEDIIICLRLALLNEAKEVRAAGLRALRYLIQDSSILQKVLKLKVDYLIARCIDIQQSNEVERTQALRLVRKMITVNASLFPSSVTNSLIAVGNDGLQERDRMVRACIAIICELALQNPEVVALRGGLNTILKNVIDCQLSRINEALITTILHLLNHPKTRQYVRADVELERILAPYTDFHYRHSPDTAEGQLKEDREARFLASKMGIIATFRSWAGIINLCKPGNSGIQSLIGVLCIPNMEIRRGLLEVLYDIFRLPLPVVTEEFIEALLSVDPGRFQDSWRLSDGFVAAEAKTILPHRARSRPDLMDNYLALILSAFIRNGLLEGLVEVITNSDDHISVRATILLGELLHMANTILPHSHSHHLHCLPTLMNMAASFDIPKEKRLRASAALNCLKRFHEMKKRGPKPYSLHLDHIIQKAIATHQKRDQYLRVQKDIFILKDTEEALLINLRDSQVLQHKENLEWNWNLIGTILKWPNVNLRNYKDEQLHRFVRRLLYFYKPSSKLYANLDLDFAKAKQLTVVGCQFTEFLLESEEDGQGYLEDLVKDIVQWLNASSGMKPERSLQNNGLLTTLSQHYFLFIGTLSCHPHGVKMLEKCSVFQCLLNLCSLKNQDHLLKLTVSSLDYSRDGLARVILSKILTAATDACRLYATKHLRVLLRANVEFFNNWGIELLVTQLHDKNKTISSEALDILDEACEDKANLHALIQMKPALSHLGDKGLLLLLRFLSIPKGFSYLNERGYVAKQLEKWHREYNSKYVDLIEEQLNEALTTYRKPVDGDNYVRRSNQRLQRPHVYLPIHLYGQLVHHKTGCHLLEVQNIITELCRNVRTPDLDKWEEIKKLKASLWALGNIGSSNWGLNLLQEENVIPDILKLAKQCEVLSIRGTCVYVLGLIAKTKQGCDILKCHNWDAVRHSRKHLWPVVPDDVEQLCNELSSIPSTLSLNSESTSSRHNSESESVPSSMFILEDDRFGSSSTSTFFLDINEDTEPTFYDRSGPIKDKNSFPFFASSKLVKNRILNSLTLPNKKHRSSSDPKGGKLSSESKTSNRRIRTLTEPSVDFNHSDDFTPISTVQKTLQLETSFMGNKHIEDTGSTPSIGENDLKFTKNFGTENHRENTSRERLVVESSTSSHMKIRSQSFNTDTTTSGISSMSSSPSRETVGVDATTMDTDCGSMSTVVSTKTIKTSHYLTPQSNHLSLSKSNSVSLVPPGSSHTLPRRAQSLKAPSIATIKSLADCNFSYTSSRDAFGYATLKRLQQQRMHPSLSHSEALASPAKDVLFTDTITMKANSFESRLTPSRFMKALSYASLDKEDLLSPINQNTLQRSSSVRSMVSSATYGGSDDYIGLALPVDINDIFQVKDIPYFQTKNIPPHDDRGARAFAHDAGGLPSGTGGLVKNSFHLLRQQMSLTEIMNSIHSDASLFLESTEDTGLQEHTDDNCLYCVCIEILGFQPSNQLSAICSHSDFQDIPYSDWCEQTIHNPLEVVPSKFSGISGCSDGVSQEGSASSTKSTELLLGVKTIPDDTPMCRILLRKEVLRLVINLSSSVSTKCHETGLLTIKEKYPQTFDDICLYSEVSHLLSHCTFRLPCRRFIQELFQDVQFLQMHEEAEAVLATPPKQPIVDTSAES

This is one part of the list.
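Also: competitive profiling in live THP-1 cells: cysteine peptides tagged with an iodoacetamide desthiobiotin (IA-DTB) probe, intensity after compound treatment relative to DMSO-treated cells.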

Regarding “RFTN1_Q14699_494_AGDMGNCVSGQQQEGGVSEEMK (UniProt Q14699)”, the “probe-labelled cysteine peptide fold change” value is, setting by setting: (10 µM) -0.279; (50 µM) -0.521.
On to “RIPOR1_Q6ZS17_925_CQEAWALER (UniProt Q6ZS17)”, for which the “probe-labelled cysteine peptide fold change” value is -0.0104 (10 µM) and -0.0775 (50 µM).
As for “RGS19_P49795_123_TEYSEENMLFWLACEELK (UniProt P49795)”, the “probe-labelled cysteine peptide fold change” value was determined as 0.335 (10 µM) and 0.179 (50 µM).
Consider “RFC3_P40938_11_YRPCSLGR (UniProt P40938)”, for which the “probe-labelled cysteine peptide fold change” value by setting is: (10 µM) -0.143; (50 µM) -0.158.
For “RIPOR1_Q6ZS17_196_GHREYTESMCLLESELEAQLGEFHLR (UniProt Q6ZS17)”, the “probe-labelled cysteine peptide fold change” value turned out to be 0.603 (10 µM) and 0.814 (50 µM).
In the case of “RLF_Q13129_663_LEDCHLQDRDLYPCPGTDCSR (UniProt Q13129)”, the “probe-labelled cysteine peptide fold change” value by setting is: (10 µM) -0.0144; (50 µM) -0.571.
Turning to “RIPOR1_Q6ZS17_196_EYTESMCLLESELEAQLGEFHLR (UniProt Q6ZS17)”, the “probe-labelled cysteine peptide fold change” value reads like this: (10 µM) -0.0505; (50 µM) 0.0867.
Taken in the same sequence, the figures for “RLF_Q13129_400_TIACLLPEDLEVR (UniProt Q13129)” were 0.247 and -0.452.
Taken in the same sequence, the figures for “RMDN3_Q96TC7_321_GDESADCHLWYAVLCGQLAEHESIQR (UniProt Q96TC7)” were 0.262 and 0.0335.
For “RMND5A_Q9H871_109_NFDSDISSVGIDGCWQADSQR (UniProt Q9H871)”, the “probe-labelled cysteine peptide fold change” value reads like this: (10 µM) -0.0348; (50 µM) 0.0723.
With “RGP1_Q92546_314_TSFSLPIPLSSTPGFCTAIVSLK (UniProt Q92546)”, the “probe-labelled cysteine peptide fold change” value reads like this: (10 µM) 0.102; (50 µM) 0.0133.
Consider “RMI1_Q9H9A7_406_SIFSVHCNVPLAHDFTNK (UniProt Q9H9A7)”, for which the “probe-labelled cysteine peptide fold change” value runs as follows: (10 µM) -0.0891; (50 µM) -0.0242.
Consider “RNASET2_O00584_48_LIMVQHWPETVCEK (UniProt O00584)”, for which the “probe-labelled cysteine peptide fold change” value is, setting by setting: (10 µM) -0.201; (50 µM) 0.00823.
Take “RIOK3_O14730_171_HDEVVCGR (UniProt O14730)”: the “probe-labelled cysteine peptide fold change” value (10 µM) is -0.336 and the “probe-labelled cysteine peptide fold change” value (50 µM) was -0.324.
In the case of “RIF1_Q5UIP0_1718_TFQTLECQHK (UniProt Q5UIP0)”, the “probe-labelled cysteine peptide fold change” value is, setting by setting: (10 µM) -0.105; (50 µM) -0.217.
As to “RNASE2_P10153_138_YAQTPANMFYIVACDNR (UniProt P10153)”, the “probe-labelled cysteine peptide fold change” value is 0.0555 (10 µM) and -0.042 (50 µM).
As for “RNASE3_P12724_138_FYVVACDNRDPR (UniProt P12724)”, the “probe-labelled cysteine peptide fold change” value by setting is: (10 µM) -0.00396; (50 µM) -0.0836.
For “RET_P07949_585_TCPDGHCDVVETQDINICPQDCLR (UniProt P07949)”, the “probe-labelled cysteine peptide fold change” value by setting is: (10 µM) -0.18; (50 µM) 0.0812.
Consider “RLF_Q13129_587_MHMEDGIYTCPVCIK (UniProt Q13129)”, for which the “probe-labelled cysteine peptide fold change” value by setting is: (10 µM) 0.0157; (50 µM) 0.066.
Regarding “RNF126_Q9BV68_13+16_YFCHCCSVEIVPR (UniProt Q9BV68)”, the “probe-labelled cysteine peptide fold change” value is, setting by setting: (10 µM) -0.268; (50 µM) -1.16.
Turning to “RLF_Q13129_1494_VCQTADTQGHEHQTTR (UniProt Q13129)”, the “probe-labelled cysteine peptide fold change” value (10 µM) is 0.131 and the “probe-labelled cysteine peptide fold change” value (50 µM) is -0.309.
In the case of “RICTOR_Q6R327_1651_YPQTFDDICLYSEVSHLLSHCTFR (UniProt Q6R327)”, the “probe-labelled cysteine peptide fold change” value is, setting by setting: (10 µM) -0.357; (50 µM) -0.603.
For “RECQL5_O94762_188_LGHAPCVALTATATPQVQEDVFAALHLK (UniProt O94762)”, the “probe-labelled cysteine peptide fold change” value was -0.0189 (10 µM) and -0.228 (50 µM).
Taken in the same sequence, the figures for “RGS12_O14924_930_EHGDHADDALHANGGLCR (UniProt O14924)” were 0.245 and 0.438.
Taken in the same sequence, the figures for “RHOT2_Q8IXI1_543_ADLPEGVAVSGPSPAEFCR (UniProt Q8IXI1)” were -0.0481 and -0.0922.
Taken in the same sequence, the figures for “RMDN3_Q96TC7_288_AYSDMCELTEEVSEKK (UniProt Q96TC7)” were 0.0747 and -0.264.
As to “RHOG_P84095_102+105_WHPEVCHHCPDVPILLVGTK (UniProt P84095)”, the “probe-labelled cysteine peptide fold change” value was 0.028 (10 µM) and -0.361 (50 µM).
With “RIOK3_O14730_287_VIPTECAIK (UniProt O14730)”, the “probe-labelled cysteine peptide fold change” value was -0.175 (10 µM) and -0.205 (50 µM).
Take “RELCH_Q9P260_401_NEHFAIPAVCDSVQPPLDQLPHK (UniProt Q9P260)”: the “probe-labelled cysteine peptide fold change” value runs as follows: (10 µM) -0.293; (50 µM) -0.0895.
Taken in the same sequence, the figures for “RIOK3_O14730_346_AGIPCPTVVLLKK (UniProt O14730)” were -0.105 and -0.596.
On to “RNF139_Q8WU17_550_LQEINDVCAICYHEFTTSAR (UniProt Q8WU17)”, for which the “probe-labelled cysteine peptide fold change” value is -0.112 (10 µM) and 0.195 (50 µM).
Regarding “RICTOR_Q6R327_959_QCEVLSIR (UniProt Q6R327)”, the “probe-labelled cysteine peptide fold change” value reads like this: (10 µM) 0.0762; (50 µM) 0.00853.
Take “RELCH_Q9P260_497_LSPAFHQALLSFCR (UniProt Q9P260)”: the “probe-labelled cysteine peptide fold change” value by setting is: (10 µM) -0.113; (50 µM) -0.00728.
With “RFC3_P40938_303_GLLSELLHNCDGQLK (UniProt P40938)”, the “probe-labelled cysteine peptide fold change” value is 0.188 (10 µM) and 0.233 (50 µM).
Taken in the same sequence, the figures for “RNASET2_O00584_55_IQNDCR (UniProt O00584)” were -0.153 and 0.236.

The record behind these values is the supplement of paper PMC12067093, “Discovery and optimisation of a covalent ligand for TRIM25 and its application to targeted protein ubiquitination” (Chemical Science, 2025).
